{"sequences": {"note": "Chains of the proteins cited; added tags and fusions are not shown. Chains listed by the source or under a name are the forms on record and can include a tag or linker.", "VEGF165 (Homo sapiens), one chain, as listed by the source": "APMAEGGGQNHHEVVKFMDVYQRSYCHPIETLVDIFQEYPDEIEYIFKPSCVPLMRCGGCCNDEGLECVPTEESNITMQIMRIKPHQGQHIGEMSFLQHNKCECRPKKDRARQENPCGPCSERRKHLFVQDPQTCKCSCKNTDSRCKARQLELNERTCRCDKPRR", "VEGF/PlGF heterodimer (Homo sapiens), one chain, as listed by the source, chain 2 of 2": "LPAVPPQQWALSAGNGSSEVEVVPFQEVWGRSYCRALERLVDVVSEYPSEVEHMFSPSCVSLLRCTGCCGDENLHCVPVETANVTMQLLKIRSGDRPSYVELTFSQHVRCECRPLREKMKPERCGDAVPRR"}, "source": "patent US20030114404", "key": {"VEGF165 (Homo sapiens) [1]": {"tested_on": "VEGF165 (Homo sapiens)", "test": "filter binding", "conditions": "2'-F pyrimidines, 37 C, purified recombinant protein"}, "[2]": {"tested_on": "VEGF/PlGF heterodimer (Homo sapiens)", "test": "filter binding", "conditions": "2'-F pyrimidines, 2'-OMe purines except 2'-OH A4, A5; substantial binding with greatly reduced affinity; purified recombinant protein; protein details: carrier-free, E. coli expressed, R & D Systems; variant of t44a"}, "VEGF [3]": {"tested_on": "VEGF", "test": "inhibition of the protein", "conditions": "2'-F pyrimidines, 2'-OMe at 2-3,8-9,11-13,15,19,21,23,27, 3'-3' dT at 28, purified recombinant protein, protein details: injected protein in Miles assay or corneal pellet"}, "VEGF/PlGF heterodimer": {"tested_on": "VEGF/PlGF heterodimer", "test": "filter binding", "conditions": "2'-F pyrimidines, substantial binding but greatly reduced affinity, purified recombinant protein, protein details: E. coli-expressed, R&D Systems"}, "VEGF165 (Homo sapiens) [4]": {"tested_on": "VEGF165 (Homo sapiens)", "test": "binding assay", "conditions": "PS at 1-4 and 29-33; 2'-OMe at 5,13,16,17,20,23-26,28; 2'-NH2 at 6-9,12,15,19,21,22,27; two riboguanosines; T are DNA; CITED; quoted from earlier application 08/447,169; purified recombinant protein; protein details: carrier-free, Sf21-expressed, R&D Systems"}, "VEGF [5]": {"tested_on": "VEGF", "test": "activity in cells", "conditions": "KSY-1 proliferation, HUVEC also >1 uM, protein in cells"}, "VEGF165 (Homo sapiens) [6]": {"tested_on": "VEGF165 (Homo sapiens)", "test": "competition with a labelled probe", "conditions": "competition EMSA, purified recombinant protein, protein details: carrier-free, Sf21-expressed, R&D Systems"}, "VEGF165 (Homo sapiens) [7]": {"tested_on": "VEGF165 (Homo sapiens)", "test": "EMSA", "conditions": "PS at positions 1-4 and 29-33 (DNA T ends), 2'-OMe at 5,8-9,11,14,16,18,23,26,28, 2'-NH2 at 6-7,10,12,17,21-22,24-25,27; competition EMSA; scrambled control, substantially lower affinity than NX213; purified recombinant protein"}}, "note": "For some assays here: A weaker result is weaker than the reference pair of the same experiment. For some assays here: For at least one entry, the source does not settle the construct or the ends of the probe. For some assays here: Where cells or extracts were used, other partners may take part."}
{"sequence": "AAUCAGUGAAUGCUUAUACAU [t44d]", "values": [{"measurement": "Kd", "setting": "VEGF165 (Homo sapiens) [1]; N22 = 3'-3' inverted dT [22 = 3'-3' inverted dT (N replaced by T), 2'-F pyrimidines at 3,4,7,11,13,14,15,17,19,21], letters built from the parent sequence and the stated change, variant of VT30.44", "value": "> 100", "unit": "nM"}]}
{"sequence": "ACCGAUGGAAUUUUUGGACGC [t2e]", "values": [{"measurement": "Kd", "setting": "VEGF165 (Homo sapiens) [1]; N22 = 3'-3' inverted dT [22 = 3'-3' inverted dT (N replaced by T), 2'-F pyrimidines at 2,3,6,11,12,13,14,15,19,21], letters built from the parent sequence and the stated change, variant of VP30.2", "value": "> 100", "unit": "nM"}]}
{"sequence": "AUCAGUGAAUGCUUAUACA [t44e]", "values": [{"measurement": "Kd", "setting": "VEGF165 (Homo sapiens) [1]; N20 = 3'-3' inverted dT [20 = 3'-3' inverted dT (N replaced by T), 2'-F pyrimidines at 2,3,6,10,12,13,14,16,18], letters built from the parent sequence and the stated change, variant of VT30.44", "value": "> 100", "unit": "nM"}]}
{"sequence": "CGGAAUCAGUGAAUGCUUAUACAUCCG [t44-OMe]", "values": [{"measurement": "binding result", "setting": "[2]", "value": "binds more weakly"}]}
{"sequence": "CGGAAUCAGUGAAUGCUUAUACAUCCGT [NX31838-20K PEG]", "values": [{"measurement": "functional effect of the aptamer", "setting": "VEGF [3]; 20K PEG, Miles assay in guinea pig, blocks vascular leakage down to 100 nM, lost at 30 nM, ineffective in corneal angiogenesis", "value": "active"}]}
{"sequence": "CGGAAUCAGUGAAUGCUUAUACAUCCGT [NX31838-40K PEG]", "values": [{"measurement": "functional effect of the aptamer", "setting": "VEGF [3]; 40K PEG, Miles assay, blocks leakage down to 100 nM, lost at 30 nM, corneal angiogenesis reduced 65-70%", "value": "active"}]}
{"sequence": "CGGAAUCAGUGAAUGCUUAUACAUCCGT [NX31838-PL liposome]", "values": [{"measurement": "functional effect of the aptamer", "setting": "VEGF [3]; phospholipid, liposomal, Miles assay, reduced blocking at 100 nM, corneal angiogenesis reduced 65-70%", "value": "active"}]}
{"sequence": "GAAUCAGUGAAUGCUUAUACAUC [t44c]", "values": [{"measurement": "Kd", "setting": "VEGF165 (Homo sapiens) [1]; N24 = 3'-3' inverted dT [24 = 3'-3' inverted dT (N replaced by T), 2'-F pyrimidines at 4,5,8,12,14,15,16,18,20,22,23], letters built from the parent sequence and the stated change, variant of VT30.44", "value": 2, "unit": "nM"}]}
{"sequence": "GCGAACCGAUGGAAUUUUUGGACGCUCGC [t2-OMe]", "values": [{"measurement": "binding result", "setting": "VEGF/PlGF heterodimer; 2'-OMe purines except 2'-OH A5 and G20", "value": "binds more weakly"}]}
{"sequence": "GCGGAAUCAGUGAAUGCUUAUACAUCCGC [t44OMe (OH-5)]", "values": [{"measurement": "Kd", "setting": "VEGF165 (Homo sapiens) [1]; 2'-OMe purines except 2'-OH A5, variant of t44", "value": "> 100", "unit": "nM"}]}
{"sequence": "GCGGAAUCAGUGAAUGCUUAUACAUCCGC [t44OMe (OH-6)]", "values": [{"measurement": "Kd", "setting": "VEGF165 (Homo sapiens) [1]; 2'-OMe purines except 2'-OH A6, variant of t44", "value": "> 100", "unit": "nM"}]}
{"sequence": "GCGGUAGGAAGAAUUGGAAGCGC [t22-OMe]", "values": [{"measurement": "binding result", "setting": "VEGF/PlGF heterodimer; 2'-OMe purines except 2'-OH G4 and A6", "value": "binds more weakly"}]}
{"sequence": "GGCGAACCGAUGGAAUUUUUGGACGCUCGCC [t2]", "values": [{"measurement": "Kd", "setting": "VEGF165 (Homo sapiens) [1]; N32 = 3'-3' inverted dT [32 = 3'-3' inverted dT, all C/U at 1-31 = 2'-F], letters built from the parent sequence and the stated change, variant of VP30.2", "value": 0.02, "unit": "nM"}]}
{"sequence": "GGGAGGACGAUGCGGCAGUUAAUUAAUUUGAGUUGUGAUGUGUGUCGUUAUGGGUCAGACGACUCGCCCGA [VP40.21]", "values": [{"measurement": "Kd", "setting": "VEGF165 (Homo sapiens) [1]", "value": "> 100", "unit": "nM"}]}
{"sequence": "GGUAGGAAGAAUUGGAAGCGC [t22e]", "values": [{"measurement": "Kd", "setting": "VEGF165 (Homo sapiens) [1]; N22 = 3'-3' inverted dT [22 = 3'-3' inverted dT, all C/U at 1-21 = 2'-F], letters built from the parent sequence and the stated change, variant of VP30.22", "value": 0.2, "unit": "nM"}]}
{"sequence": "GUAGGAAGAAUUGGAAGCGC [t22f]", "values": [{"measurement": "Kd", "setting": "VEGF165 (Homo sapiens) [1]; N21 = 3'-3' inverted dT [21 = 3'-3' inverted dT, all C/U at 1-20 = 2'-F], letters built from the parent sequence and the stated change, variant of VP30.22", "value": "> 100", "unit": "nM"}]}
{"sequence": "TTTTACCCUGAUGGUAGACGCCGGGGUGTTTTT [NX213]", "values": [{"measurement": "Kd", "setting": "VEGF165 (Homo sapiens) [4]", "value": 0.14, "unit": "nM"}, {"measurement": "IC50", "setting": "VEGF [5]; PS at 1-4 and 29-33, 2'-OMe at 5,13,16,17,20,23-26,28, 2'-NH2 at 6-9,12,15,19,21,22,27, two riboguanosines, T are DNA", "value": "> 1000", "unit": "nM"}]}
{"sequence": "TTTTACCCUGAUGGUAGACGCCGGGGUGTTTTT [NX278]", "values": [{"measurement": "binding result", "setting": "VEGF165 (Homo sapiens) [6]; as NX213 plus 1,2-di-O-octadecyl-sn-glycerol lipid, PS at 1-4 and 29-33, 2'-OMe at 5,13,16,17,20,23-26,28, 2'-NH2 at 6-9,12,15,19,21,22,27, affinity comparable to NX213, variant of NX213", "value": "binds"}]}
{"sequence": "TTTTGUCGGUACGGAGUGGACCGUCACGTTTTT [scNX213]", "values": [{"measurement": "binding result", "setting": "VEGF165 (Homo sapiens) [7]", "value": "binds more weakly"}]}
{"sequence": "TTTTGUCGGUACGGAGUGGACCGUCACGTTTTT [scNX278-Liposome]", "values": [{"measurement": "binding result", "setting": "VEGF165 (Homo sapiens) [6]; scNX278 embedded in DSPC:cholesterol liposome, scrambled control, substantially lower affinity, variant of NX278-Liposome", "value": "binds more weakly"}, {"measurement": "IC50", "setting": "VEGF [5]; scNX278 embedded in DSPC:cholesterol liposome, scrambled control, variant of NX278-Liposome", "value": "> 1000", "unit": "nM"}]}
{"sequence": "TTTTGUCGGUACGGAGUGGACCGUCACGTTTTT [scNX278]", "values": [{"measurement": "binding result", "setting": "VEGF165 (Homo sapiens) [6]; PS at 1-4 and 29-33, 2'-OMe at 5,8-9,11,14,16,18,23,26,28, 2'-NH2 at 6-7,10,12,17,21-22,24-25,27, dialkylglycerol lipid, scrambled control, substantially lower affinity, variant of NX278", "value": "binds more weakly"}]}
